# Laboratory results taken from PubChem BioAssay AID624297 (National Center for Advancing Translational Sciences (NCATS), 2012).
# The campaign covered roughly 340,000 compounds. About 6,200 (1.8%) were called active. The inconclusive results got no clear call from the source; some entries with a clear call stand among them for comparison. The call rests on the fitted dose curve; in most records, active means well fitted activation curve with a large enough effect; inconclusive means small, poorly fitted or top-dose-only effect; inactive means no such curve, though single readings can be large or run the other way. Potencies beside an inconclusive call are fits to weak or partial responses and may not hold up.
# Test: A quantitative high throughput screen for small molecules that induce DNA re-replication in SW480 colon adenocarcinoma cells. Further: nearly all actives have a fitted effect of over 55% in size. On re-replication activation: % of control where 0% means no effect.
# Details: Hoechst DNA content imaging, 48 h; re-replication activation: at 46.1 µM (top of the series) unless noted
# Summary of the method: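 SW480 cells exposed to compounds for 48 hr at 37 C, 5% CO2, then Hoechst-stained 40 min. Nuclear DNA content imaged by fluorescence scanning (405 nm excitation, 500-530 nm emission); re-replication scored as increased high-intensity nuclei.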
# Potency means the concentration at half of the fitted maximal effect.
Structure (SMILES),Potency,re-replication activation
O=C1OC(c2ccccc2)(c2ccc(O)cc2)c2ccccc21 (stereo not drawn),inactive,–
COc1ccc(C(C(=O)NC2CCCCC2)N(Cc2cccs2)C(=O)Cc2c[nH]c3ccccc23)cc1OC (stereo not drawn),inactive,–
O=c1[nH][nH]c2cc([N+](=O)[O-])ccc12,inactive,–
CCOC(=O)c1nn(-c2ccc(Cl)cc2)c2nnc(Cc3ccccc3)c(=O)n12,"inconclusive: 23.1 µM [activator, single point]",–
c1ccc(-c2nc(N3CCN(c4ccccc4)CC3)nc(-n3ccnc3)n2)cc1,"inconclusive: 18.4 µM [activator, single point]",–
COc1ccc(C(=O)Nc2cc(C(=O)O)cc(C(=O)O)c2)cc1Cl,inactive,–
O=c1oc2ccccc2cc1-c1csc(NN=C2CCCCC2)n1,inactive,–
CN1/C(=C\C(=O)CSc2nnc(NCc3ccccc3)s2)C(C)(C)c2ccccc21,inactive,–
CCC(C)(C)n1nnnc1C(c1cc2ccc(OC)cc2[nH]c1=O)N1CCN(C2CCCCC2)CC1 (stereo not drawn),"inconclusive: 20.6 µM [activator, single point]",–
COc1ccccc1CN1CC(C(=O)N2CCC(C(=O)c3ccccc3)CC2)CCC1=O (stereo not drawn),–,inconclusive: 25.5% [activator]
COc1ccc(CNC2CCN(Cc3ccccc3)CC2)cc1,"inconclusive: 18.4 µM [activator, single point]",–
CCOc1ccc(C(=O)c2cc([N+](=O)[O-])ccc2N2CCOCC2)cc1,active: 0.058 µM,–
CCNC(=O)/C(C#N)=C/c1c(N(Cc2ccccc2)Cc2ccccc2)nc2ccccn2c1=O,inactive,–
COC(=O)C1=C(C)N(Cc2ccccc2)C(=NCCc2c[nH]c3ccccc23)N[C@H]1c1cccc(C(F)(F)F)c1,"inconclusive: 29.1 µM [activator, single point]",–
O=C(COC(=O)c1cc(=O)c2ccccc2o1)Nc1c(F)c(F)c(F)c(F)c1F,"inconclusive: 23.1 µM [activator, single point]",–
C=CCn1c(-c2csc3ccccc23)n[nH]c1=S,"inconclusive: 29.1 µM [activator, single point]",–
Cc1ccc(-c2ccc(=O)n(CC(=O)NCCC(C)C)n2)cc1,inactive,–
CC(=O)Nc1nc(C)c(-c2csc(Nc3ccc(O)cc3)n2)s1,"inconclusive: 18.4 µM [activator, single point]",–
COc1cc2ccc3c(CCN(C)C)cc(OC)c(OC)c3c2cc1OC,inactive,–
COc1ccc(-c2csc(NNC3=NCCCCC3)n2)cc1,"inconclusive: 16.4 µM [activator, partial curve, poor fit]",–
CC(=O)C[C@H](O)CC(=O)[C@H]1OC(=O)[C@H](C)C/C=C\Cc2ccccc21,"inconclusive: 0.291 µM [activator, partial curve, poor fit]",–
O=C1N/C(=N\N=C\c2cccs2)SC1Cc1cccc(Cl)c1 (stereo not drawn),"inconclusive: 20.6 µM [activator, single point]",–

Structure (SMILES),Potency,re-replication activation
Cc1ccc(Cn2nnc3c(=O)[nH]c(C4CCN(S(=O)(=O)c5ccc(F)cc5)CC4)nc32)cc1,"inconclusive: 31.6 µM [activator, single point]",–
COc1cc(NC2=Nc3cccc4cccc2c34)cc(OC)c1OC,"inconclusive: 13 µM [activator, partial curve, poor fit]",–
CCOc1cc(S(=O)(=O)N2CCCC2)ccc1Cl,active: 0.731 µM,–
NC(=S)Nc1ncc(C(F)(F)F)cc1Cl,"inconclusive: 29.1 µM [activator, single point]",–
CCc1ccc(-c2cc(C)no2)cc1S(=O)(=O)N1CCN(c2ccc(F)cc2)CC1,"inconclusive: 7.31 µM [activator, partial curve, poor fit]",–
CC(=O)c1ccc(OCC(O)CN2CCN(CCN3C(=O)c4cccc5cccc(c45)C3=O)CC2)cc1 (stereo not drawn),"inconclusive: 18.4 µM [activator, single point]",–
COC(=O)COc1ccc(S(=O)(=O)Nc2ccc(C(N)=O)cc2)cc1C,"inconclusive: 6.51 µM [activator, partial curve, poor fit]",–
CCCc1cc(C(=O)OC)c2ccccc2n1,"inconclusive: 0.461 µM [activator, full curve, poor fit]",–
COCCNC(=O)c1c(CSc2ccc(Cl)cc2)noc1C(=O)NCc1ccccc1,–,inactive: -4.86% [at 9.22 µM]
Cc1cccc(N2C(=O)c3ccc(C(=O)Nc4ccccn4)cc3C2=O)c1,inactive,–
CCC(=O)N1CCN(C(=O)CC)C1c1ccccc1,"inconclusive: 0.103 µM [activator, full curve, poor fit]",–
CCOc1ccccc1-c1nc(CN2CCCC2c2nccs2)c(C)o1 (stereo not drawn),"inconclusive: 16.4 µM [activator, partial curve, poor fit]",–
Cc1ccn2c(=O)c(C(=O)NCCCN3CCCC3=O)c(O)nc2c1,"inconclusive: 29.1 µM [activator, single point]",–
CSc1nc(N)nc(SCC(=O)c2ccc(C)cc2)c1C#N,"inconclusive: 29.1 µM [activator, single point]",–
O=C(Nc1ccccn1)c1ccc([N+](=O)[O-])o1,"inconclusive: 3.26 µM [activator, full curve]",–
N=c1n(CCN2CCCCC2)c2ccccc2n1CC(O)COc1ccccc1 (stereo not drawn),"inconclusive: 29.1 µM [activator, single point]",–
COc1ccc(N2CCN(C(=O)CCC(=O)NNc3nc4ccccc4c4nc(C)nn34)CC2)cc1,"inconclusive: 2.59 µM [activator, single point]",–
Cc1cc(C)cc(N(C(=O)c2nsc(Cl)c2Cl)C(C(=O)NC2CCCC2)c2ccc(O)cc2)c1 (stereo not drawn),"inconclusive: 16.4 µM [activator, single point]",–
COc1cccc(CN(C)c2nc(-c3cccs3)nc3ccccc23)c1,"inconclusive: 23.1 µM [activator, single point]",–
Fc1ccccc1COc1ccccc1CNCc1ccncc1,"inconclusive: 16.4 µM [activator, single point]",–
O=C(C1CCN(c2nnc(N3CCCC3=O)s2)CC1)N1CCN(c2cccc(C(F)(F)F)c2)CC1,"inconclusive: 20.6 µM [activator, single point]",–
